Measured values taken from article PMC9663578, “A fluorogenic probe for predicting treatment response in non-small cell lung cancer with EGFR-activating mutations” (Nature Communications, 2022).

Tested on: biopsy samples from NSCLC patients
Assay: HX103-based multicolor FACS, biopsy samples
Type: cell-based, human
Parameters: AUC of ROC, HX103(+) vs EGFR-activating mutations / AUC of ROC, EGFR(+)HX103(+) vs EGFR-activating mutations / AUC of ROC, EGFR(+)HX103(+) vs therapy response to EGFR-TKI / AUC of ROC, HX103(+) vs therapy response to EGFR-TKI: unit not given beside the values
Conditions: for Area under the ROC curve EGFR(+)HX103(+) (%) / Area under the ROC curve HX103(+) (%): Biopsy samples

Which “AUC of ROC, EGFR(+)HX103(+) vs therapy response to EGFR-TKI” value (13 evaluable patients) does the source give for `COc1cc2c(Nc3ccc(F)c(Cl)c3)ncnc2cc1OCCCNc1ccc(S(=O)(=O)N(C)C)c2nonc12` [HX103] here?
The value was 1.0.

What about the “AUC of ROC, HX103(+) vs therapy response to EGFR-TKI” value (13 evaluable patients) of the same molecule?
The value was 1.0.

And the “AUC of ROC, EGFR(+)HX103(+) vs EGFR-activating mutations” value (31 biopsy samples)?
The value was 0.93.

And the “AUC of ROC, HX103(+) vs EGFR-activating mutations” value (31 biopsy samples)?
Its value is 0.93.

What about the “Area under the ROC curve EGFR(+)HX103(+) (%)” value (CR/PR vs SD/PD) of the same molecule?
The value was 1.

And the “Area under the ROC curve HX103(+) (%)” value (CR/PR vs SD/PD)?
The value was 1.

And the “Area under the ROC curve EGFR(+)HX103(+) (%)” value (Mutation vs WT)?
Its value is 0.9292.

And the “Area under the ROC curve HX103(+) (%)” value (Mutation vs WT)?
The value was 0.9292.

And the “sensitivity, EGFR(+)HX103(+) vs EGFR mutations” value (cut-off 30.1%, 11/15)?
Its value is 73.3%.

And the “specificity, EGFR(+)HX103(+) vs EGFR mutations” value (cut-off 30.1%, 16/16)?
The value was 100%.

And the “sensitivity, EGFR(+)HX103(+) vs therapy response to EGFR-TKI” value (previous cut-off points)?
The value was 100%.

What about the “sensitivity, HX103(+) vs therapy response to EGFR-TKI” value (previous cut-off points) of the same molecule?
Its value is 100%.

What about the “specificity, EGFR(+)HX103(+) vs therapy response to EGFR-TKI” value (previous cut-off points) of the same molecule?
The value was 100%.

What about the “specificity, HX103(+) vs therapy response to EGFR-TKI” value (previous cut-off points) of the same molecule?
The value was 100%.
